The other results are listed elsewhere or left out. Repeats are few or missing, and single values can be far off.
The compounds below were run on Geomyces destructans (assay: growth inhibition relative to DMSO control; higher = stronger growth inhibition). Conditions: 10 µM; 15 °C; incubation time 10 days.
With `O=C(CCc1ccc(O)cc1)c1c(O)cc(O)cc1O` the growth inhibition was 2.85%. Work on `C=CC(C1=CC(=O)C(OC)=CC1=O)c1ccc(OC)cc1` (stereo not given) yielded a growth inhibition of -6.42%. Compound `C[C@H]1[C@H](C)CC[C@]2(CO)CC[C@]3(C)C(=CC[C@@H]4[C@@]5(C)CC[C@H](O)C(C)(C)[C@@H]5CC[C@]43C)[C@H]12` has a growth inhibition of -6.72%. With `COc1ccc(-c2cc(=O)c3cc(OC)ccc3o2)cc1` the growth inhibition was 11.1%. Compound `CN(C)CCOC(C)(c1ccccc1)c1ccccn1` (stereo not given) has a growth inhibition of -7.97%. Compound `CC1(C)CC[C@]2(C)CC[C@]3(C)C(=CC[C@@H]4[C@@]5(C)CC[C@H](O)C(C)(C)[C@@H]5CC[C@]43C)[C@@H]2C1` [beta-AMYRIN] has a growth inhibition of 3.94%. `CCCCCCc1ccc(O)cc1O.Nc1c2ccccc2nc2ccccc12` was tested, and the growth inhibition was -27.5%. For `COC(=O)Nc1nc2cc(C(=O)c3ccccc3)ccc2[nH]1`, the growth inhibition was -7.17%. `CC1(C)S[C@@H]2[C@H](NC(=O)[C@H](NC(=O)N3CCNC3=O)c3ccccc3)C(=O)N2[C@H]1C(=O)O` showed a growth inhibition of -4.76%. Work on `NC(=O)c1cc[n+](CC2=C(C(=O)O)N3C(=O)[C@@H](NC(=O)[C@@H](c4ccccc4)S(=O)(=O)[O-])[C@H]3SC2)cc1` yielded a growth inhibition of -11.6%. `CC(CCc1ccccc1)NCC(O)c1ccc(O)c(C(N)=O)c1` (stereo not given) gave a growth inhibition of -4.26%. `CCOC(=O)[C@H](CCc1ccccc1)N[C@@H](C)C(=O)N1Cc2ccccc2C[C@H]1C(=O)O` showed a growth inhibition of -5.58%. With `CC(C)CCCCCOC(=O)COc1cc(Cl)c(Cl)cc1Cl` the growth inhibition was -11.7%. For `COc1ccc(C(Cl)=C(c2ccc(OC)cc2)c2ccc(OC)cc2)cc1`, the growth inhibition was 5.39%. For `O=C(O)c1cccnc1Nc1cccc(C(F)(F)F)c1`, the growth inhibition was 0.462%. `CN(C)/N=N/c1[nH]cnc1C(N)=O` showed a growth inhibition of -7.18%. `C[N+](C)(C)CCCCCC[N+](C)(C)C` showed a growth inhibition of -11.1%. Compound `CC[N+](C)(C)Cc1ccccc1Br` has a growth inhibition of -2.37%. Compound `Cc1cc(O)c(C=O)c2c1C(=O)Oc1c(C)c(O)c3c(c1O2)C(O)OC3=O` (stereo not given) has a growth inhibition of 1.97%. `CN1C(C)(C)CCCC1(C)C` was tested, and the growth inhibition was -28.1%. For `Cc1onc(-c2c(Cl)cccc2Cl)c1C(=O)N[C@@H]1C(=O)N2[C@@H]1SC(C)(C)[C@@H]2C(=O)O`, the growth inhibition was 1.78%. For `O=C(Oc1cc(O)cc2c1C[C@@H](OC(=O)c1cc(O)c(O)c(O)c1)[C@@H](c1ccc(O)c(O)c1)O2)c1cc(O)c(O)c(O)c1`, the growth inhibition was -2.67%. Compound `CC(C)(C(=O)O)c1ccc(C(O)CCCN2CCC(C(O)(c3ccccc3)c3ccccc3)CC2)cc1` (stereo not given) has a growth inhibition of -27.3%. With `COc1c2ccoc2c(OC)c2oc(=O)ccc12` the growth inhibition was -27.9%. Compound `COc1ccc([C@@H]2CC(=O)c3c(O)cc(O[C@@H]4O[C@H](CO[C@@H]5O[C@@H](C)[C@H](O)[C@@H](O)[C@H]5O)[C@@H](O)[C@H](O)[C@H]4O)cc3O2)cc1O` has a growth inhibition of 2.1%. Compound `C[N+]1(C)C[C@H](O)C[C@H]1C(=O)[O-]` has a growth inhibition of -8.53%. In the case of `C=CC(C1=CC(=O)C=CC1=O)c1ccccc1` (stereo not given), the growth inhibition is reported as 2.16%. Compound `CC(=O)OC1CCC2(C)C(CCC3C2CCC2(C)C3CC3OC4(CCC(C)CO4)C(C)C32)C1` (stereo not given) has a growth inhibition of -1.75%. `CN(C)CCCN1c2ccccc2Sc2ccccc21` was tested, and the growth inhibition was -12.6%. `Cc1cc(C(C)(C)C)c(O)c(C)c1CC1=NCCN1` gave a growth inhibition of -15.1%. Compound `COC(=O)[C@H]1[C@H]2C[C@H]3c4[nH]c5ccccc5c4CCN3C[C@@H]2CC[C@@H]1O` has a growth inhibition of 5.48%. Work on `CC(=O)Nc1ccccc1` yielded a growth inhibition of -8.46%. With `COc1ccc(-c2cc(=O)c3c(O)cc(O)c(-c4cc(-c5cc(=O)c6c(O)cc(O)cc6o5)ccc4OC)c3o2)cc1` the growth inhibition was -5.81%. `COc1ccc2c(=O)c(-c3cc4c(cc3OC)OCO4)coc2c1` was tested, and the growth inhibition was 0.0787%. Work on `C[N+]1(C)[C@@H]2CC[C@H]1C[C@@H](OC(=O)C(O)c1ccccc1)C2` (stereo not given in full) yielded a growth inhibition of -0.678%. For `COc1ccc2c(c1)OC1(O)COc3cc(OC)c(OC)cc3C1=C2` (stereo not given), the growth inhibition was -17%. `Oc1ncnc2[nH]ncc12` gave a growth inhibition of -26.1%. Compound `C[C@]12CCC(=O)C=C1CC[C@@H]1[C@@H]2[C@@H](O)C[C@@]2(C)[C@H]1CC[C@]2(O)C(=O)CO` has a growth inhibition of -13.7%. For `OC1=Cc2c(O)cc(O)cc2OC1(O)c1ccc(O)c(O)c1` (stereo not given), the growth inhibition was 9.15%. `CC1(C)C(=O)C=C[C@]2(C)[C@H]3CC[C@@]4(C)[C@H](c5ccoc5)OC(=O)[C@H]5O[C@]54[C@]3(C)C(=O)C[C@@H]12` gave a growth inhibition of -8.86%. `COc1cc(O)c(C(=O)c2ccccc2)c(OC)c1` gave a growth inhibition of -18.9%. For `C[N+]1(CCCCC[N+]2(C)CCCC2)CCCC1`, the growth inhibition was -5.4%. With `O=C(O[C@@H]1Cc2c(O)cc(O)cc2O[C@@H]1c1cc(O)c(O)c(O)c1-c1c([C@H]2Oc3cc(O)cc(O)c3C[C@H]2O)cc(O)c(O)c1O)c1cc(O)c(O)c(O)c1` the growth inhibition was 3.94%. `Cc1onc(-c2ccccc2)c1-c1ccc(S(N)(=O)=O)cc1` was tested, and the growth inhibition was -27.5%. For `CCCc1cc(=O)[nH]c(=S)[nH]1`, the growth inhibition was -11.5%. `CN(N=O)C(=O)N[C@H]1C(O)O[C@H](CO)[C@@H](O)[C@@H]1O` (mixture of isomers) was tested, and the growth inhibition was -5.08%. `COC(=O)CC1C(C)(C)C(=O)C2CC3(O)C4=CC(=O)OC(c5ccoc5)C4(C)CCC3C1(C)C2=O` (stereo not drawn) [8beta-HYDROXYCARAPIN] was tested, and the growth inhibition was -5.7%. Compound `N=C(N)c1ccc(OCCCCCOc2ccc(C(=N)N)cc2)cc1` has a growth inhibition of 70.2%. `O=C(OC[C@H]1O[C@@H](OC(=O)c2cc(O)c(O)c(OC(=O)c3cc(O)c(O)c(O)c3)c2)[C@H](OC(=O)c2cc(O)c(O)c(OC(=O)c3cc(O)c(O)c(O)c3)c2)[C@@H](OC(=O)c2cc(O)c(O)c(OC(=O)c3cc(O)c(O)c(O)c3)c2)[C@@H]1OC(=O)c1cc(O)c(O)c(OC(=O)c2cc(O)c(O)c(O)c2)c1)c1cc(O)c(O)c(OC(=O)c2cc(O)c(O)c(O)c2)c1` showed a growth inhibition of -9.03%. With `COc1ccc(/C=C/C(=O)O)cc1OC` the growth inhibition was 5.27%. `CCCCC(=O)O[C@H]1CC[C@H]2[C@@H]3CCc4cc(O)ccc4[C@H]3CC[C@]12C` gave a growth inhibition of 38.7%. In the case of `Fc1ccc(C(c2ccc(F)cc2)N2CCN(C/C=C/c3ccccc3)CC2)cc1`, the growth inhibition is reported as -12.5%. `CN1CCc2c(c3ccccc3n2Cc2ccccc2)C1` gave a growth inhibition of -39.6%. In the case of `CN[C@@H]1[C@H](O[C@H]2[C@H](O[C@H]3[C@H](O)[C@@H](O)[C@H](N=C(N)N)[C@@H](O)[C@@H]3N=C(N)N)O[C@@H](C)[C@]2(O)C=O)O[C@@H](CO)[C@H](O)[C@H]1O`, the growth inhibition is reported as -9.79%. For `COc1cc(-c2coc3cc(OCc4ccccc4)c(OC)c(O)c3c2=O)cc(OCc2ccccc2)c1OC`, the growth inhibition was -2.67%.
